# Reference: the supplement of paper PMC8728848
# Some of the results follow.
# B1: FimA-N2 (Actinomyces oris) (protein)
# chain: MHHHHHHSSGVDLGTENLYFQSNAWIYDVNVYPKNEAIDVDKTIQAQKLNGYGVGSLIKFPVESTAPTLDAKSFYKYFQLKDTLDERLSEVTATDVSLEGTPLQPTDYKVETKQQTVTVTFTAEGLKKIKAAPGKKVSAVFQGKVTKAGNGAITNRAQVISDTLYAEQPPTPETPPTDPENPPTSDEVISRWGDLSIKKVDTHQQGQTKA
# Key:
# Test in all cases: glycan array binding signal (z-score within array); higher = stronger binding
# Settings in all cases: glycan notation: IUPAC condensed, linker removed
# Fuc(a1-2)Gal = biological target: Fuc(a1-2)Gal
# How it was run: (§1)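 Arrays were curated from the Consortium for Functional Glycomics database, 3228 in total, and kept only where the protein sequence was available. Binding is expressed as a within-array Z-score. This score was averaged across arrays of the same protein sequence at different concentrations or buffers and across linkers, and negative values can be read as non-binding.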
# Fuc(a1-2)Gal(b1-3)GalNAc = biological target: Fuc(a1-2)Gal(b1-3)GalNAc
# How it was run: as §1
# [1] = biological target: Fuc(a1-2)Gal(b1-3)GalNAc(a1-3)[Fuc(a1-2)]Gal(b1-4)Glc
# How it was run: as §1
# [2] = biological target: Fuc(a1-2)Gal(b1-3)GalNAc(a1-3)[Fuc(a1-2)]Gal(b1-4)GlcNAc
# How it was run: as §1
# [3] = biological target: Fuc(a1-2)Gal(b1-3)GalNAc(b1-3)Gal
# How it was run: as §1
# [4] = biological target: Fuc(a1-2)Gal(b1-3)GalNAc(b1-3)Gal(a1-4)Gal(b1-4)Glc
# How it was run: as §1
# [5] = biological target: Fuc(a1-2)Gal(b1-3)GalNAc(b1-4)[Neu5Ac(a2-3)]Gal(b1-4)Glc
# How it was run: as §1
# Fuc(a1-2)Gal(b1-3)GlcNAc = biological target: Fuc(a1-2)Gal(b1-3)GlcNAc
# How it was run: as §1
# [6] = biological target: Fuc(a1-2)Gal(b1-3)GlcNAc(b1-2)Man(a1-3)[Fuc(a1-2)Gal(b1-3)GlcNAc(b1-2)Man(a1-6)]Man(b1-4)GlcNAc(b1-4)GlcNAc
# How it was run: as §1
# [7] = biological target: Fuc(a1-2)Gal(b1-3)GlcNAc(b1-2)Man(a1-3)[Fuc(a1-2)Gal(b1-3)GlcNAc(b1-2)Man(a1-6)]Man(b1-4)GlcNAc(b1-4)[Fuc(a1-6)]GlcNAc
# How it was run: as §1
# [8] = biological target: Fuc(a1-2)Gal(b1-3)GlcNAc(b1-3)Gal(b1-4)Glc
# How it was run: as §1
# [9] = biological target: Fuc(a1-2)Gal(b1-3)GlcNAc(b1-3)GalNAc
# How it was run: as §1
# [10] = biological target: Fuc(a1-2)Gal(b1-3)GlcNAc(b1-3)[Fuc(a1-2)Gal(b1-3)GlcNAc(b1-6)]GalNAc
# How it was run: as §1
# [11] = biological target: Fuc(a1-2)Gal(b1-3)GlcNAc(b1-3)[Gal(b1-4)GlcNAc(b1-6)]Gal(b1-4)Glc
# How it was run: as §1
# [12] = biological target: Fuc(a1-2)Gal(b1-3)GlcNAc(b1-3)[Neu5Ac(a2-6)Gal(b1-4)GlcNAc(b1-6)]Gal(b1-4)Glc
# How it was run: as §1
# [13] = biological target: Fuc(a1-2)Gal(b1-3)GlcNAc6S
# How it was run: as §1
# [14] = biological target: Fuc(a1-2)Gal(b1-3)[Fuc(a1-4)]GlcNAc
# How it was run: as §1
# [15] = biological target: Fuc(a1-2)Gal(b1-3)[Fuc(a1-4)]GlcNAc(b1-2)Man(a1-3)[Fuc(a1-2)Gal(b1-3)[Fuc(a1-4)]GlcNAc(b1-2)Man(a1-3)]Man(b1-4)GlcNAc(b1-4)GlcNAc
# How it was run: as §1
# [16] = biological target: Fuc(a1-2)Gal(b1-3)[Fuc(a1-4)]GlcNAc(b1-2)Man(a1-3)[Fuc(a1-2)Gal(b1-3)[Fuc(a1-4)]GlcNAc(b1-2)Man(a1-6)]Man(b1-4)GlcNAc(b1-4)[Fuc(a1-6)]GlcNAc(b1-4)[Fuc(a1-6)]GlcNAc
# How it was run: as §1
# [17] = biological target: Fuc(a1-2)Gal(b1-3)[Fuc(a1-4)]GlcNAc(b1-3)[Fuc(a1-3)[Gal(b1-4)]GlcNAc(b1-6)]Gal(b1-4)Glc
# How it was run: as §1
# [18] = biological target: Fuc(a1-2)Gal(b1-3)[Fuc(a1-4)]GlcNAc(b1-3)[Gal(b1-4)GlcNAc(b1-6)]Gal(b1-4)Glc
# How it was run: as §1
# Fuc(a1-2)Gal(b1-4)Glc = biological target: Fuc(a1-2)Gal(b1-4)Glc
# How it was run: as §1
# Fuc(a1-2)Gal(b1-4)Glc6S = biological target: Fuc(a1-2)Gal(b1-4)Glc6S
# How it was run: as §1
# Fuc(a1-2)Gal(b1-4)GlcNAc = biological target: Fuc(a1-2)Gal(b1-4)GlcNAc
# How it was run: as §1
# [19] = biological target: Fuc(a1-2)Gal(b1-4)GlcNAc(b1-2)Man
# How it was run: as §1
# [20] = biological target: Fuc(a1-2)Gal(b1-4)GlcNAc(b1-2)Man(a1-3)[Fuc(a1-2)Gal(b1-4)GlcNAc(b1-2)Man(a1-6)]Man(b1-4)GlcNAc(b1-4)GlcNAc
# How it was run: as §1
# [21] = biological target: Fuc(a1-2)Gal(b1-4)GlcNAc(b1-2)Man(a1-3)[Fuc(a1-2)Gal(b1-4)GlcNAc(b1-2)Man(a1-6)]Man(b1-4)GlcNAc(b1-4)[Fuc(a1-6)]GlcNAc
# How it was run: as §1
# [22] = biological target: Fuc(a1-2)Gal(b1-4)GlcNAc(b1-2)[Fuc(a1-2)Gal(b1-4)GlcNAc(b1-4)]Man(a1-3)[Fuc(a1-2)Gal(b1-4)GlcNAc(b1-2)Man(a1-6)]Man(b1-4)GlcNAc(b1-4)GlcNAc
# How it was run: as §1
# [23] = biological target: Fuc(a1-2)Gal(b1-4)GlcNAc(b1-3)Gal(b1-4)GlcNAc
# How it was run: as §1
# [24] = biological target: Fuc(a1-2)Gal(b1-4)GlcNAc(b1-3)Gal(b1-4)GlcNAc(b1-2)Man(a1-3)[Fuc(a1-2)Gal(b1-4)GlcNAc(b1-3)Gal(b1-4)GlcNAc(b1-2)Man(a1-6)]Man(b1-4)GlcNAc(b1-4)GlcNAc
# How it was run: as §1
# [25] = biological target: Fuc(a1-2)Gal(b1-4)GlcNAc(b1-3)Gal(b1-4)GlcNAc(b1-3)Gal(b1-4)GlcNAc
# How it was run: as §1
# [26] = biological target: Fuc(a1-2)Gal(b1-4)GlcNAc(b1-3)GalNAc
# How it was run: as §1
# [27] = biological target: Fuc(a1-2)Gal(b1-4)GlcNAc(b1-3)[Fuc(a1-2)Gal(b1-4)GlcNAc(b1-6)]GalNAc
# How it was run: as §1
# [28] = biological target: Fuc(a1-2)Gal(b1-4)GlcNAc(b1-3)[Fuc(a1-3)[Gal(b1-4)]GlcNAc(b1-6)]Gal(b1-4)Glc
# How it was run: as §1
# [29] = biological target: Fuc(a1-2)Gal(b1-4)GlcNAc(b1-6)GalNAc
# How it was run: as §1
# [30] = biological target: Fuc(a1-2)Gal(b1-4)GlcNAc6S
# How it was run: as §1
# [31] = biological target: Fuc(a1-2)Gal(b1-4)[Fuc(a1-3)]GlcNAc
# How it was run: as §1
binder,measurement,setting,value
B1,glycan array binding signal (z-score),Fuc(a1-2)Gal,-0.037
same,glycan array binding signal (z-score),Fuc(a1-2)Gal(b1-3)GalNAc,-0.76
same,glycan array binding signal (z-score),[1],-0.362
same,glycan array binding signal (z-score),[2],-0.692
same,glycan array binding signal (z-score),[3],-0.503
same,glycan array binding signal (z-score),[4],1.56
same,glycan array binding signal (z-score),[5],0.973
same,glycan array binding signal (z-score),Fuc(a1-2)Gal(b1-3)GlcNAc,-1.13
same,glycan array binding signal (z-score),[6],1.73
same,glycan array binding signal (z-score),[7],-0.779
same,glycan array binding signal (z-score),[8],-0.985
same,glycan array binding signal (z-score),[9],-0.377
same,glycan array binding signal (z-score),[10],-0.008
same,glycan array binding signal (z-score),[11],-0.109
same,glycan array binding signal (z-score),[12],0.331
same,glycan array binding signal (z-score),[13],1.45
same,glycan array binding signal (z-score),[14],0.542
same,glycan array binding signal (z-score),[15],0.03
same,glycan array binding signal (z-score),[16],-1.11
same,glycan array binding signal (z-score),[17],-0.967
same,glycan array binding signal (z-score),[18],1.08
same,glycan array binding signal (z-score),Fuc(a1-2)Gal(b1-4)Glc,0.723
same,glycan array binding signal (z-score),Fuc(a1-2)Gal(b1-4)Glc6S,1.22
same,glycan array binding signal (z-score),Fuc(a1-2)Gal(b1-4)GlcNAc,0.416
same,glycan array binding signal (z-score),[19],1.52
same,glycan array binding signal (z-score),[20],-0.34
same,glycan array binding signal (z-score),[21],2.43
same,glycan array binding signal (z-score),[22],1.85
same,glycan array binding signal (z-score),[23],-0.882
same,glycan array binding signal (z-score),[24],-0.614
same,glycan array binding signal (z-score),[25],1.62
same,glycan array binding signal (z-score),[26],-1.06
same,glycan array binding signal (z-score),[27],-0.363
same,glycan array binding signal (z-score),[28],0.295
same,glycan array binding signal (z-score),[29],1.08
same,glycan array binding signal (z-score),[30],0.295
same,glycan array binding signal (z-score),[31],0.22

# A different layout for some results above.
binder	measurement	setting	value
B1	glycan array binding signal (z-score)	Fuc(a1-2)Gal(b1-4)GlcNAc	0.416
same	glycan array binding signal (z-score)	[19]	1.52
